The list shows a part of the results. The data scatter; read single values as rough.
What was measured:
[1] = compound: ClCC(=O)N[C@@H]1CCCc2ccccc12; assay: log2 mean competition ratio of IA-DTB cysteine labelling (DMSO/compound) (log2 ratio); higher = stronger cysteine engagement by compound; conditions: treatment time: 4 h, cell line lysate: HEK293T
Procedure: (§1)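 IA-DTB competitive cysteine chemoproteomics in HEK293T RIPA lysate. Lysates were treated with compound 29 or 30 at 50 or 200 µM for 4 h, then IA-DTB (500 µM, 1 h), trypsin-digested, NeutrAvidin-enriched and analysed by diaPASEF. Competition ratio = intensity DMSO / intensity compound (n=4 treated, n=64 DMSO); binding: mean log2 CR ≥ 1 and p ≤ 0.05 plus QC filters. Target is the cysteine site.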

[2] = compound: ClCC(=O)N[C@H]1CCCc2ccccc12; assay: as above; conditions: treatment time: 4 h, cell line lysate: HEK293T
Procedure: as §1

| Target | log2 mean competition ratio ([1]; 50 µM) | log2 mean competition ratio ([1]; 200 µM) | log2 mean competition ratio ([2]; 50 µM) | log2 mean competition ratio ([2]; 200 µM) |
| --- | --- | --- | --- | --- |
| RGL1 C289 | -0.0344 | 0.382 | -0.467 | -0.476 |
| RBM27 C279 (UniProt Q9P2N5) | 0.192 | -0.0398 | -0.114 | 0.251 |
| RASAL1 C30 | 0.111 | -0.189 | 0.214 | 0.1 |
| RASSF2 C251 (UniProt P50749) | 0.000576 | 0.169 | 0.101 | 0.011 |
| RBM22 C179 (UniProt Q9NW64) | -0.217 | 0.131 | -0.146 | 0.0414 |
| RFXAP C185 (UniProt O00287) | 0.0545 | -0.119 | 0.0893 | -0.167 |
| RALGAPB C278 (UniProt Q86X10) | 0.326 | 0.183 | 0.429 | 0.0266 |
| RANBP6 C188 (UniProt O60518) | 0.449 | -0.0521 | -0.486 | -0.0395 |
| RB1CC1 C282 (UniProt Q8TDY2) | 0.101 | -0.0378 | -0.38 | 0.133 |
| RAP1GAP2 C584 (UniProt Q684P5) | -0.123 | -0.176 | 0.315 | 0.0957 |
| RITA1 C80 | 0.106 | 0.418 | -0.237 | 0.215 |
| RETREG2 C187 (UniProt Q8NC44) | -0.376 | 0.0373 | 0.213 | 0.279 |
| RBM28 C33 (UniProt Q9NW13) | -0.326 | -0.173 | 0.478 | 0.321 |
| RBMXL1 C338 (UniProt Q96E39) | 0.127 | 0.0859 | 0.235 | 0.263 |
| RFTN1 C211 (UniProt Q14699) | 0.00873 | -0.221 | 0.0136 | -0.366 |
| RGP1 C101 (UniProt Q92546) | 0.246 | -0.0472 | 0.207 | -0.0297 |
| RLF C227 (UniProt Q13129) | 0.164 | 0.164 | 0.429 | 0.0825 |
| RANBP6 C980 (UniProt O60518) | -0.227 | -0.0464 | -0.113 | 0.0225 |
| RANBP2 C707 (UniProt P49792) | -0.363 | -0.0111 | -0.297 | -0.0908 |
| RB1CC1 C783 (UniProt Q8TDY2) | 0.0552 | 0.163 | 0.014 | 0.133 |
| RANBP1 C158 (UniProt P43487) | -0.0708 | -0.0306 | 0.0411 | 0.0654 |
| RHOG C157 (UniProt P84095) | 0.117 | 0.00583 | 0.0776 | -0.0167 |

| Target | log2 mean competition ratio ([1]; 50 µM) | log2 mean competition ratio ([1]; 200 µM) | log2 mean competition ratio ([2]; 50 µM) | log2 mean competition ratio ([2]; 200 µM) |
| --- | --- | --- | --- | --- |
| RB1 C853 (UniProt P06400) | 0.00198 | -0.00791 | -0.0843 | 0.089 |
| RDH14 C306 (UniProt Q9HBH5) | 0.164 | 0.0354 | -0.368 | -0.136 |
| RAF1 C637 (UniProt P04049) | -0.138 | -0.0826 | 0.233 | -0.197 |
| RECQL C606 (UniProt P46063) | 0.238 | 0.157 | 0.185 | -0.301 |
| RIF1 C1594 (UniProt Q5UIP0) | 0.0344 | -0.0666 | 0.316 | -0.0267 |
| RFC2 C171 (UniProt P35250) | 0.00901 | -0.051 | 0.00374 | 0.0412 |
| RIF1 C1865 (UniProt Q5UIP0) | -0.11 | 0.0334 | 0.107 | 0.225 |
| RAI1 C1729 (UniProt Q7Z5J4) | 0.184 | 0.141 | -0.225 | 0.13 |
| RING1 C279 (UniProt Q06587) | 0.0535 | -0.0793 | -0.0511 | -0.0627 |
| RANBP2 C2982 (UniProt P49792) | 0.0105 | -0.403 | 0.0929 | -0.495 |
| RCC1L C425 (UniProt Q96I51) | 0.00385 | 0.101 | -0.0102 | 0.00769 |
| RAF1 C588 (UniProt P04049) | -0.249 | -0.0159 | -0.244 | 0.0888 |
| RECQL5 C246 (UniProt O94762) | -0.0615 | 0.121 | 0.102 | -0.028 |
| RANBP2 C141 (UniProt P49792) | 0.0727 | -0.0993 | -0.386 | 0.0795 |
| RAI14 C468 (UniProt Q9P0K7) | -0.0216 | 0.272 | 0.279 | 0.174 |
| RELL1 C88 (UniProt Q8IUW5) | -0.0195 | -0.181 | -0.499 | -0.18 |
| RHOC C159 (UniProt P08134) | 0.177 | 0.0872 | -0.194 | 0.000361 |
| RILPL1 C47 (UniProt Q5EBL4) | 0.0308 | -0.00742 | -0.0603 | -0.0692 |
| RARS1 C150 | -0.0841 | 0.0265 | -0.263 | -0.079 |
| RANBP10 C243 (UniProt Q6VN20) | 0.659 | 0.146 | 0.331 | 0.00651 |
| RHOT1 C175 (UniProt Q8IXI2) | 0.161 | 0.187 | -0.129 | -0.0663 |
| RIF1 C2126 (UniProt Q5UIP0) | -0.315 | 0.0106 | 0.0602 | -0.286 |

Whole records as entered above. Values in the order: log2 mean competition ratio ([1]; 50 µM) | log2 mean competition ratio ([1]; 200 µM) | log2 mean competition ratio ([2]; 50 µM) | log2 mean competition ratio ([2]; 200 µM)
RANBP2 C141 (UniProt P49792) as listed: 0.0727 | -0.0993 | -0.386 | 0.0795
RIF1 C1594 (UniProt Q5UIP0) as listed: 0.0344 | -0.0666 | 0.316 | -0.0267

— the supplement of paper PMC11732987, “Enantioselective OTUD7B fragment discovery through chemoproteomics screening and high-throughput optimisation” (Communications Chemistry, 2025)
